The list does not hold the whole screen: it gathers some chemical classes. Other doses and runs of a compound may be missing. T/C gives the treated animals as a percentage of the vehicle group. Some doses have a count of surviving animals in place of a T/C: the source files T/C as zero there, which appears to mark a toxic dose or a test without result, not a measured value. Some doses without a T/C left all or most animals alive at the check, yet need not have been tolerated: survival well below the control is almost never listed, so the zero probably covers shortened survival too. Survivors were counted at the toxicity check, usually on the fifth day, unless a day is given; later deaths do not show. Schedules are NCI's codes, read here as Q, the interval in days (D) or hours (H), X, the number of doses. For survival time, this PubChem deposit counts one and a half times the control or more as active, and values a quarter to a half above the control carry no call in these data; other NCI protocols may use other cut-offs. Some entries show no survivor count and are marked so; the dose need not have been tolerated. Some entries were tested several times; the results are listed from low to high. Additions like (4×) count equal records among those shown.
System: CD2F1 mice, L1210 leukemia ip, survival T/C
Experiment: NCI In Vivo Anticancer Drug Screen. Data for tumor model L1210 Leukemia (intraperitoneal) in CD2F1 (CDF1) mice
Settings: higher T/C = longer survival
Summary of the method: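 Vehicle-treated tumor-bearing mice served as controls (C) for compound-treated mice (T). Reported figure is T divided by C.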

CC1=CC(=O)C(N(CCCl)CCCl)=CC1=O
T/C (T/C endpoint: mean survival time, dose: 0.1 mg/kg/injection, schedule: Q01DX009 (ip), vehicle: Klucel (hydroxypropylcellulose) (HPC)): 114 % of control
T/C (T/C endpoint: mean survival time, dose: 0.18 mg/kg/injection, schedule: Q01DX009 (ip), vehicle: Klucel (hydroxypropylcellulose) (HPC)): 111 % of control
T/C (T/C endpoint: mean survival time, dose: 0.19 mg/kg/injection, schedule: Q01DX009 (ip), vehicle: other): 95 % of control
T/C (T/C endpoint: mean survival time, dose: 0.2 mg/kg/injection, schedule: Q01DX009 (ip), vehicle: Klucel (hydroxypropylcellulose) (HPC)): 116 % of control
T/C (T/C endpoint: mean survival time, dose: 0.37 mg/kg/injection, schedule: Q01DX009 (ip), vehicle: Klucel (hydroxypropylcellulose) (HPC)): 115 % of control
T/C (T/C endpoint: mean survival time, dose: 0.39 mg/kg/injection, schedule: Q01DX009 (ip), vehicle: Klucel (hydroxypropylcellulose) (HPC)): 100 % of control [survivor count not shown]
T/C (T/C endpoint: mean survival time, dose: 0.39 mg/kg/injection, schedule: Q01DX009 (ip), vehicle: other): 97 % of control
T/C (T/C endpoint: mean survival time, dose: 0.4 mg/kg/injection, schedule: Q01DX009 (ip), vehicle: Klucel (hydroxypropylcellulose) (HPC)): 118 % of control
T/C (T/C endpoint: mean survival time, dose: 0.75 mg/kg/injection, schedule: Q01DX009 (ip), vehicle: Klucel (hydroxypropylcellulose) (HPC)): 110 % of control
T/C (T/C endpoint: mean survival time, dose: 0.78 mg/kg/injection, schedule: Q01DX009 (ip), vehicle: Klucel (hydroxypropylcellulose) (HPC)): 100 % of control [survivor count not shown]
T/C (T/C endpoint: mean survival time, dose: 0.78 mg/kg/injection, schedule: Q01DX009 (ip), vehicle: other): 89 % of control
T/C (T/C endpoint: mean survival time, dose: 0.8 mg/kg/injection, schedule: Q01DX009 (ip), vehicle: Klucel (hydroxypropylcellulose) (HPC)): 124 % of control
T/C (T/C endpoint: mean survival time, dose: 1.5 mg/kg/injection, schedule: Q01DX009 (ip), vehicle: Klucel (hydroxypropylcellulose) (HPC)): 119 % of control
T/C (T/C endpoint: mean survival time, dose: 1.56 mg/kg/injection, schedule: Q01DX009 (ip), vehicle: Klucel (hydroxypropylcellulose) (HPC)): 101 [survivor count not shown], 117 [survivor count not shown], 123 % of control [survivor count not shown]
T/C (T/C endpoint: mean survival time, dose: 1.56 mg/kg/injection, schedule: Q01DX009 (ip), vehicle: other): 101 % of control
T/C (T/C endpoint: mean survival time, dose: 3.0 mg/kg/injection, schedule: Q01DX009 (ip), vehicle: Klucel (hydroxypropylcellulose) (HPC)): 111 % of control
T/C (T/C endpoint: mean survival time, dose: 3.12 mg/kg/injection, schedule: Q01DX009 (ip), vehicle: other): 97 % of control
T/C (T/C endpoint: mean survival time, dose: 3.13 mg/kg/injection, schedule: Q01DX009 (ip), vehicle: Klucel (hydroxypropylcellulose) (HPC)): 110 [survivor count not shown] (2×) and 117 % of control [survivor count not shown]
T/C (T/C endpoint: mean survival time, dose: 6.0 mg/kg/injection, schedule: Q01DX009 (ip), vehicle: Klucel (hydroxypropylcellulose) (HPC)): 93 % of control
T/C (T/C endpoint: mean survival time, dose: 6.25 mg/kg/injection, schedule: Q01DX009 (ip), vehicle: Klucel (hydroxypropylcellulose) (HPC)): 115 [survivor count not shown], 116 [survivor count not shown], 117 % of control [survivor count not shown]
T/C (T/C endpoint: mean survival time, dose: 6.25 mg/kg/injection, schedule: Q01DX009 (ip), vehicle: other): 106 % of control
T/C (T/C endpoint: mean survival time, dose: 12.5 mg/kg/injection, schedule: Q01DX009 (ip), vehicle: Klucel (hydroxypropylcellulose) (HPC)): 90 % of control [survivor count not shown]
T/C (T/C endpoint: mean survival time, dose: 25.0 mg/kg/injection, schedule: Q01DX009 (ip), vehicle: Klucel (hydroxypropylcellulose) (HPC)): 86 % of control [survivor count not shown]

CC(C)=NOP(N)(=O)N(CCCl)CCCl (stereo not drawn)
T/C (T/C endpoint: mean survival time, dose: 7.75 mg/kg/injection, schedule: Q01DX001 (ip), vehicle: water): 107 % of control
T/C (T/C endpoint: mean survival time, dose: 15.5 mg/kg/injection, schedule: Q01DX001 (ip), vehicle: water): 115 % of control
T/C (T/C endpoint: mean survival time, dose: 31.0 mg/kg/injection, schedule: Q01DX001 (ip), vehicle: water): 128 % of control
T/C (T/C endpoint: mean survival time, dose: 31.25 mg/kg/injection, schedule: Q01DX001 (ip), vehicle: water): 129 % of control
T/C (T/C endpoint: mean survival time, dose: 62.0 mg/kg/injection, schedule: Q01DX001 (ip), vehicle: water): 139 % of control
T/C (T/C endpoint: mean survival time, dose: 62.5 mg/kg/injection, schedule: Q01DX001 (ip), vehicle: water): 127 % of control
survivor count (T/C endpoint: mean survival time, dose: 125.0 mg/kg/injection, schedule: Q01DX001 (ip), vehicle: water): 5 of 6
survivor count (T/C endpoint: mean survival time, dose: 250.0 mg/kg/injection, schedule: Q01DX001 (ip), vehicle: water): 5 of 6
survivor count (T/C endpoint: mean survival time, dose: 500.0 mg/kg/injection, schedule: Q01DX001 (ip), vehicle: water): 0 of 6

O=NN(CCSCCCl)C(=O)NC1CCCCC1
T/C (T/C endpoint: mean survival time, dose: 4.0 mg/kg/injection, schedule: Q01DX001 (ip), vehicle: other): 107 % of control [survivor count not shown]
T/C (T/C endpoint: mean survival time, dose: 8.0 mg/kg/injection, schedule: Q01DX001 (ip), vehicle: other): 113 % of control [survivor count not shown]
T/C (T/C endpoint: mean survival time, dose: 16.0 mg/kg/injection, schedule: Q01DX001 (ip), vehicle: other): 128 % of control [survivor count not shown]
T/C (T/C endpoint: mean survival time, dose: 32.0 mg/kg/injection, schedule: Q01DX001 (ip), vehicle: other): 142 % of control [survivor count not shown]
T/C (T/C endpoint: median survival time, dose: 3.12 mg/kg/injection, schedule: Q01DX009 (ip), vehicle: saline with Tween-80): 113 % of control
T/C (T/C endpoint: median survival time, dose: 6.25 mg/kg/injection, schedule: Q01DX009 (ip), vehicle: saline with Tween-80): 118 % of control
T/C (T/C endpoint: median survival time, dose: 12.5 mg/kg/injection, schedule: Q01DX009 (ip), vehicle: saline with Tween-80): 121 % of control
T/C (T/C endpoint: median survival time, dose: 25.0 mg/kg/injection, schedule: Q01DX009 (ip), vehicle: saline with Tween-80): 166 % of control

CC(c1ccccc1)N(CCCl)P(=O)(Cl)Cl (stereo not drawn)
T/C (T/C endpoint: mean survival time, dose: 15.63 mg/kg/injection, schedule: Q01DX001 (ip), vehicle: distilled water + Tween-80): 103 % of control [survivor count not shown]
T/C (T/C endpoint: mean survival time, dose: 31.25 mg/kg/injection, schedule: Q01DX001 (ip), vehicle: distilled water + Tween-80): 96 % of control [survivor count not shown]
T/C (T/C endpoint: mean survival time, dose: 62.5 mg/kg/injection, schedule: Q01DX001 (ip), vehicle: distilled water + Tween-80): 102 % of control [survivor count not shown]
T/C (T/C endpoint: mean survival time, dose: 125.0 mg/kg/injection, schedule: Q01DX001 (ip), vehicle: distilled water + Tween-80): 92 % of control [survivor count not shown]
T/C (T/C endpoint: mean survival time, dose: 250.0 mg/kg/injection, schedule: Q01DX001 (ip), vehicle: distilled water + Tween-80): 96 % of control [survivor count not shown]

S=P(Cl)(Cl)N(CCCl)CCCl
T/C (T/C endpoint: mean survival time, dose: 6.25 mg/kg/injection, schedule: Q01DX009 (ip), vehicle: saline with Tween-80): 101 % of control [survivor count not shown]
T/C (T/C endpoint: mean survival time, dose: 12.5 mg/kg/injection, schedule: Q01DX009 (ip), vehicle: saline with Tween-80): 97 % of control [survivor count not shown]
T/C (T/C endpoint: mean survival time, dose: 25.0 mg/kg/injection, schedule: Q01DX009 (ip), vehicle: saline with Tween-80): 95 % of control [survivor count not shown]

NP(=O)(OCCCC=O)N(CCCl)CCCl (stereo not drawn)
T/C (T/C endpoint: mean survival time, dose: 31.3 mg/kg/injection, schedule: Q01DX001 (ip), vehicle: DMSO): 97 % of control [survivor count not shown]
T/C (T/C endpoint: mean survival time, dose: 62.5 mg/kg/injection, schedule: Q01DX001 (ip), vehicle: DMSO): 97 % of control [survivor count not shown]
T/C (T/C endpoint: mean survival time, dose: 125.0 mg/kg/injection, schedule: Q01DX001 (ip), vehicle: DMSO): 95 % of control [survivor count not shown]
T/C (T/C endpoint: mean survival time, dose: 250.0 mg/kg/injection, schedule: Q01DX001 (ip), vehicle: DMSO): 104 % of control [survivor count not shown]
T/C (T/C endpoint: mean survival time, dose: 500.0 mg/kg/injection, schedule: Q01DX001 (ip), vehicle: DMSO): 113 % of control [survivor count not shown]
